Data as given in US7968708B2, “Azepans and methods for making and using same” (The Research Foundation of State University of New York, priority 2006, dated 2011).
At least one compound was matched to its structure with a doubt left.

Assays:
Type in all cases: cell-based
[1] = system: A549 lung cancer cells; experiment: MTT cell growth inhibition assay; settings: 20 μM, data not shown
[2] = system: various cancer cells (MCF-7 breast cancer cells shown); experiment: Cancer cell morphological changes; settings: 20 μM
[3] = system: HCT116 colon cancer cells; experiment: DNA fragmentation cell death ELISA (Roche); settings: HCT116, 10 μM and 20 μM, 48 hours
[4] = system: various cancer cell types; experiment: Cancer cell growth inhibition, overall conclusion; settings: 3 and 5 days treatment
[5] = system: survivin; experiment: Western blot, survivin expression in HCT116 cells; settings: HCT116, 48 hours after treatment
[6] = system: PC-3 prostate cancer cells; experiment: MTT cell growth inhibition assay; settings: 20 μM, data not shown
[7] = system: survivin; experiment: Western blot, survivin expression in 2008 ovarian cancer cells
[8] = system: caspase 9; experiment: Western blot, caspase activation in HCT116 cells; settings: HCT116, 48 hours after treatment
[9] = system: XIAP; experiment: Western blot, XIAP expression in 2008 ovarian cancer cells
[10] = system: 2008 ovarian cancer cells; experiment: MTT cell growth inhibition assay; settings: 20 μM, data not shown
[11] = system: Bcl-2; experiment: Western blot, Bcl-2 expression in 2008 ovarian cancer cells
[12] = system: survivin promoter; experiment: Survivin promoter-luciferase (pLuc-6309) reporter assay in MCF-7 cells; settings: MCF-7, 5, 10, 20 μM, 24 hours
[13] = system: 2008 ovarian cancer cells, lung cancer cells, PC-3 prostate cancer cells; experiment: Cell cycle distribution; settings: 1, 5, 10 μM; 1, 2, 3 days treatment
[14] = system: caspase 3; experiment: Western blot, caspase activation in HCT116 cells; settings: HCT116, 48 hours after treatment
[15] = system: HCT116 colon cancer cells; experiment: Cell growth inhibition depending on p53 and p21 status

## O=C(NCc1ccccc1)[C@@H](Cc1ccccc1)N1CCCC[C@H](N2Cc3ccccc3C2=O)C1=O [Compound 102, N-Benzyl-2(R)-[2-oxo-3(S)-(1-oxo-1,3-dihydro-isoindol-2-yl)-cycloheptyl]-3-phenyl-propionamide]
[1]
  cell growth inhibition: significant cell growth inhibition
[2]; 72-hour treatment
  morphological changes: dramatic changes
[2]; 24 hours
  morphological changes: did not show significantly morphological changes
[3]
  cytoplasmic histone-associated DNA fragmentation: strikingly enhances cell DNA fragmentation
[4]
  inhibitory effects on cancer cell growth: broad and strong inhibitory effects
[5]
  survivin expression: downregulates survivin expression
[6]
  cell growth inhibition: significant cell growth inhibition
[7]
  survivin expression: downregulates
[8]
  caspase 9 activation: activates
[9]
  XIAP expression: no effect
[10]
  cell growth inhibition: significant cell growth inhibition
[11]
  Bcl-2 expression: downregulates
[12]
  survivin promoter activity (luciferase): decreases with increasing compound 102 concentration
[13]
  cell cycle arrest: effectively arrests cancer cells in G1 phase
[14]
  caspase 3 activation: activates
[15]
  efficacy on cancer cell growth inhibition versus p53 and p21 status: associated with both p53 and p21 gene status
